Assay results published in PubChem BioAssay AID540303 (National Center for Advancing Translational Sciences (NCATS), 2011).
Screen size: about 330,000 compounds; about 1,000 (0.3%) were called active. Inconclusive means that the source gave no clear call. Such entries were picked first, then a sample of the others. Calls come from the whole dose curve; as a rule, active = well fitted inhibition curve with a large enough effect; inconclusive = small, poorly fitted or top-dose-only effect; inactive = no such curve, though single readings can be large or run the other way; tested in mouse RAW 264.7 cells. Potencies beside an inconclusive call are fits to weak or partial responses and may not hold up.

test: qHTS for Inhibitors of Cell Surface uPA Generation; conditions: cell surface uPA generation assay; series mostly up to 38.3 µM; note: nearly all actives have a fitted effect of over 55% in size
Method in brief: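 RAW 264.7 cells, 4000/well, given compound (1:5 dilutions, up to 38.3 uM final) and incubated 24 h at 37 C. Blocked uPA-dependent LF entry keeps ATP high; ATPlite luminescence read, 5 s exposure.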
Potency is the fitted concentration of half-maximal effect.

Row | SMILES | Potency
1 | C=CC(=O)Oc1ccc(N2Cc3ccccc3C2=O)cc1 | active: 5.01 µM
2 | O=C(c1ccccc1OC(F)F)N1CCN(S(=O)(=O)c2ccc3c(c2)OCCCO3)CC1 | inconclusive: 5.62 µM [inhibitor, partial curve, poor fit]
3 | CCOC(=O)N1CCN(C(=O)c2cn(CC)c3ccc(S(=O)(=O)N4CCCCC4)cc3c2=O)CC1 | inconclusive: 3.16 µM [inhibitor, partial curve, poor fit]
4 | O=S(=O)(NC1CCCCCCC1)c1ccccc1 | inactive
5 | Cc1cc(C)cc(NC(=O)CSc2nnc(Cc3cccn3C)n2-c2ccc(F)cc2)c1 | inactive
6 | CCOC(=O)N1CCN(CC(=O)Nc2c(C(=O)OC)[nH]c3cc(C)ccc23)CC1 | inactive
7 | O=C(C(Cc1ccccc1)N1C(=O)c2ccccc2C1=O)N1c2ccccc2CCc2ccccc21 (stereo unspecified) | inconclusive: 7.08 µM [inhibitor, single point]
8 | COc1ccc2cc3cc(C(=O)N4CCCCC4C)oc3nc2c1 (stereo unspecified) | inconclusive: 12.6 µM [inhibitor, partial curve, poor fit]
9 | O=C1C(Cc2ccccc2)Nc2ncnc(N3CCc4ccccc4C3)c2N1Cc1ccccc1 (stereo unspecified) | inconclusive: 12.6 µM [inhibitor, single point]
10 | CN(C)c1ccc(-c2nc3ccccc3n2C)cc1 | inconclusive: 0.355 µM [inhibitor, full curve]
11 | O=C(Nc1cc([N+](=O)[O-])ccc1F)C1CC1 | inactive
12 | CCOc1ccc(N(C)S(=O)(=O)c2ccc(-c3cc(C)no3)s2)cc1 | inconclusive: 1 µM [inhibitor, full curve, poor fit]
13 | CCCn1c(/C=C/c2ccccc2)nc2ccccc21 | inconclusive: 4.47 µM [inhibitor, partial curve]
14 | O=C(c1cc(-c2ccccc2Cl)on1)N1CCCC1 | inactive
15 | Cn1cccc1C(=O)NC(=O)COC(=O)CC12CC3CC(CC(C3)C1)C2 | inactive
16 | O=C(Nc1nccc(-c2cccs2)n1)c1ccccc1Cl | inactive
17 | Cc1ccc(-c2nnc(Cc3ccc([N+](=O)[O-])cc3)o2)cc1 | inconclusive: 12.6 µM [inhibitor, partial curve, poor fit]
18 | O=C(c1cc2nc(-c3ccco3)cc(C(F)(F)F)n2n1)N1CCc2ccccc2C1 | inactive
19 | CC(C)CC1Nc2ncnc(N3CCN(c4ccccn4)CC3)c2N(Cc2ccc(Br)cc2)C1=O (stereo unspecified) | inconclusive: 11.2 µM [inhibitor, partial curve, poor fit]
20 | CCCCOc1ncnc2c1[nH]c1ccc(F)cc12 | inconclusive: 10 µM [inhibitor, single point]
21 | NC(=O)c1ccsc1NC(=O)c1ccc(S(=O)(=O)N2CCCC2)cc1 | inconclusive: 2.82 µM [inhibitor, partial curve, poor fit]
22 | CC(C)(C)c1ccc(C(=O)CSc2n[nH]c(=O)[nH]c2=O)cc1 | inactive
23 | Cc1cc2ncc(-c3ccc(Cl)cc3)c(N)n2n1 | active: 3.55 µM
24 | CCN(CC)c1ccc(/C=N/O)cc1 | inconclusive: 12.6 µM [inhibitor, single point]

Row | SMILES | Potency
25 | COc1cc(SC)ccc1C(=O)Nc1nc(C)cs1 | active: 0.891 µM
26 | Cc1ccc(C(=O)OCC(=O)Nc2ccc(N3CCOCC3)cc2)cc1 | inactive
27 | CCN(CC)CCCN=C1N[C@@H](c2cccc(C(F)(F)F)c2)C(C(=O)OC)=C(C)N1CC | inconclusive: 5.01 µM [inhibitor, partial curve, poor fit]
28 | COc1ccc(CC(=O)NCC(=O)N=Nc2c(O)[nH]c3ccccc23)cc1 | inactive
29 | O=C(CNC(=O)c1ccc(Br)cc1)NC1CC1 | inactive
30 | Cc1cccc(NC(=S)NCc2ccc(F)cc2)c1 | inactive
31 | CN(C)C(=O)C12CCC(C)(C(=O)C1Br)C2(C)C (stereo unspecified) | inactive
32 | CCN(CC)S(=O)(=O)c1ccc(NC(=O)CC(NC(C)=O)c2ccccc2)cc1 (stereo unspecified) | inactive
33 | O=C1N(c2ccccc2C(F)(F)F)OC1(Cc1ccccc1)c1ccccc1 (stereo unspecified) | inconclusive: 8.91 µM [inhibitor, partial curve]
34 | Oc1ccc2ccccc2c1CNc1ccc(Br)cn1 | inconclusive: 7.94 µM [inhibitor, partial curve, poor fit]
35 | COc1ccc(S(=O)(=O)N/N=C\c2ccc3c(c2)OCO3)c(OC)c1 | inconclusive: 5.62 µM [inhibitor, partial curve, poor fit]
36 | Cc1cc(N2CCC(C)CC2)nc(NCc2ccccc2)n1 | inconclusive: 12.6 µM [inhibitor, single point]
37 | Cc1ccc(-c2cc(C(=O)N/N=C/c3c[nH]c4ccccc34)n[nH]2)o1 | inconclusive: 10 µM [inhibitor, partial curve]
38 | O=C(Nc1nc2ccc(F)cc2s1)C1CCN(S(=O)(=O)c2cc([N+](=O)[O-])ccc2Cl)CC1 | inconclusive: 10 µM [inhibitor, partial curve, poor fit]
39 | Cc1cccc(/C=N/NC(=O)c2cc(C3CC3)nc3ccccc23)n1 | inactive
40 | O=C(Oc1ccc(-c2cn3c(n2)SCC3)cc1)c1ccccc1 | inconclusive: 12.6 µM [inhibitor, partial curve, poor fit]
41 | COc1ccc(CN(C)CC(=O)Nc2sc3c(c2C#N)CCC3)cc1OC | inconclusive: 11.2 µM [inhibitor, single point]
42 | C=CCC[C@@H](Cc1ccc(F)cc1)C(=O)OC[C@H](C)NC(=O)[C@H](CC=C)CC(=O)N(CCO)Cc1ccccc1 | inconclusive: 10 µM [inhibitor, single point]
43 | Cc1ccc(NC(=O)Nc2cccnc2)cc1NC(=O)Nc1cccnc1 | inconclusive: 12.6 µM [inhibitor, single point]
44 | Cc1ccc(CNC(=O)[C@@H]2CCC(=O)N2Cc2ccco2)cc1 | inactive
45 | Cc1cc(C)c(/C=C(\C#N)C(N)=S)c(C)c1 | inconclusive: 5.62 µM [inhibitor, partial curve, poor fit]
46 | COc1ccc(NS(=O)(=O)c2ccc(O)c(C(=O)OCC(=O)N3CCCCC3)c2)cc1 | inconclusive: 1.41 µM [inhibitor, full curve, poor fit]
47 | CCOC(=O)N/N=C/c1ccc(N(CC)CC)cc1O | inconclusive: 3.16 µM [inhibitor, partial curve, poor fit]
48 | Cc1ccc(NC(=S)NC(=O)C2CC2)cc1Cl | inactive

Part of the list above, set out differently:
Cc1cccc(NC(=S)NCc2ccc(F)cc2)c1
  Potency: inactive
CN(C)C(=O)C12CCC(C)(C(=O)C1Br)C2(C)C (stereo unspecified)
  Potency: inactive
CCN(CC)S(=O)(=O)c1ccc(NC(=O)CC(NC(C)=O)c2ccccc2)cc1 (stereo unspecified)
  Potency: inactive

Further compounds

Row | SMILES | Potency
49 | CC(C)N(C(=O)[C@H]1C[C@H](CC(=O)NC(C)(C)C)C(=O)N2CCc3c([nH]c4ccc(Cl)cc34)[C@]12C)C(C)C | inconclusive: 28.2 µM [inhibitor, single point]
50 | Cc1ccc(C)c(OCc2ccc(C(=O)Nc3ccc([N+](=O)[O-])cn3)o2)c1 | inconclusive: 11.2 µM [inhibitor, partial curve, poor fit]
51 | O=C(CCN1C(=O)/C(=C/c2ccccc2Cl)SC1=S)N1CCCC1 | inactive
52 | Cn1cnc([N+](=O)[O-])c1S(=O)(=O)Nc1ccccc1 | inactive
53 | Cc1ccc(CNC(=O)C2CC(c3ccccc3[N+](=O)[O-])=NO2)cc1 (stereo unspecified) | inconclusive: 15.8 µM [inhibitor, partial curve, poor fit]
54 | CC(C)C(OC(=O)c1cc2c(s1)CCCCC2)C(=O)NC(N)=O (stereo unspecified) | inactive
55 | CC1CCN(C(=O)Cn2nnc(-c3ccccc3)n2)CC1 | inconclusive: 28.2 µM [inhibitor, single point]
56 | CS(=O)(=O)c1ccc(CNC(=O)C2(C(F)(F)F)CC(CCCO)CCCO2)cc1 (stereo unspecified) | inconclusive: 7.94 µM [inhibitor, partial curve, poor fit]
57 | Cn1nnnc1Sc1ncnc2scc(Br)c12 | active: 2.82 µM
58 | Cc1ccc(NC(=O)c2cc(C(C)(C)C)nn2Cc2ccccc2)cc1 | inactive
59 | CC1(C)OC2C(CO)OC(n3cnc4c(=S)nc[nH]c43)C2O1 (stereo unspecified) | inactive
60 | Cc1ccc(-c2cc(C(=O)NCc3cnn(C)c3C)c3cc(Br)ccc3n2)cc1 | inactive
61 | CCCCCCCCCCCCCCCC[N+](C)(C)CCN(Cc1ccc(OC)cc1)c1ncccn1 | inconclusive: 6.31 µM [inhibitor, partial curve]
62 | COc1ccc2nc(NC(=S)NC(=O)c3ccco3)sc2c1 | inconclusive: 5.01 µM [inhibitor, partial curve, poor fit]
63 | CCN(CC(=O)NCc1cccs1)CC(=O)Nc1c(Cl)ccc(C)c1Cl | inconclusive: 12.6 µM [inhibitor, single point]
64 | CCn1c(/C=C/c2cc(Br)ccc2O)nc2ccccc2c1=O | inconclusive: 31.6 µM [inhibitor, single point]
65 | CCSc1nsc(NC(=O)Nc2ccc(F)cc2F)n1 | inconclusive: 28.2 µM [inhibitor, single point]
66 | CC(C)(C)c1nc(N2CCN(C(=O)c3ccco3)CC2)c2nnn(Cc3ccccc3)c2n1 | inactive
67 | Cn1cnnc1SCc1ccc(C(=O)N=Nc2c(O)n(Cc3ccc(Cl)cc3)c3ccccc23)cc1 | inconclusive: 31.6 µM [inhibitor, partial curve, poor fit]
68 | Cc1ccc(C(=O)Nc2sc3c(c2C(=O)O)CCCC3)o1 | inconclusive: 5.01 µM [inhibitor, partial curve]
69 | CCC1CCCCN1CCCCOc1cccc(Cl)c1 (stereo unspecified) | inactive
70 | N#C/C(N=Nc1ccccc1O)=N\Nc1ccccc1O | inconclusive: 11.2 µM [inhibitor, partial curve, poor fit]
71 | COc1cccc(CNC(=O)c2cc3c(C)nc4ccccc4c3o2)c1 | inconclusive: 12.6 µM [inhibitor, single point]
